Data as given in PubChem BioAssay AID1259254 (NCATS, 2017)

Assay: 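Genome-wide screen for genes that prevent DNA re-replication in cancer cells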 (primary screen)
System: human HCT116 colorectal cancer cells
Knock-down reagent: single siRNA against human genes
Duration: 3 days
Measurement: 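Imaged Hoechst DNA stain sorts each cell into a cycle phase by DNA amount; per plate, G2 fraction set to 0% for non-targeting and 100% for GMNN siRNA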
Scale: G2 robust z-score and G2 cells, % of GMNN control: higher = more G2 cells, more excess DNA replication
Hit rule: 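Active siRNAs have a G2 robust z of 5 or more median absolute deviations over the median, which in these data means about 38% or higher of GMNN control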
Shown is one part, drawn at random, of about 59,000 deposited reagents. Over the whole deposit, about 1,550 (2.6%) got an active call. 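G2 share is only a proxy for re-replication; each gene was hit by three separate siRNAs, and active genes were retested.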 The numbers tell different reagents against one gene apart. Further read-outs or replicates are left out here. Not given: the amount of reagent.

| Target gene | reagent no. | G2 robust z-score | G2 cells, % of GMNN control | call |
| --- | --- | --- | --- | --- |
| COL11A2 | 1 | -0.838 | -2.93 | inactive |
| COL11A2 | 2 | 4.22 | 32.7 | inactive |
| COL11A2 | 3 | 0.378 | 5.63 | inactive |
| ARHGAP10 | 1 | 0.0233 | 3.13 | inactive |
| ARHGAP10 | 2 | -0.265 | 1.1 | inactive |
| ARHGAP10 | 3 | 0.311 | 5.15 | inactive |
| AQP3 | 1 | 2.65 | 21.6 | inactive |
| AQP3 | 2 | -1.31 | -6.28 | inactive |
| AQP3 | 3 | -0.7 | -1.96 | inactive |
| YAP1 | 1 | -0.0374 | 2.7 | inactive |
| YAP1 | 2 | 1.2 | 11.4 | inactive |
| YAP1 | 3 | 0.569 | 6.97 | inactive |
| LOC400682 | 1 | -0.281 | 0.987 | inactive |
| LOC400682 | 2 | 0.653 | 7.56 | inactive |
| LOC400682 | 3 | -0.792 | -2.61 | inactive |
| PPM1A | 1 | 1.74 | 15.2 | inactive |
| PPM1A | 2 | 0.000747 | 2.97 | inactive |
| PPM1A | 3 | 0.999 | 10 | inactive |
| TMED6 | 1 | -0.776 | -2.49 | inactive |
| TMED6 | 2 | -0.471 | -0.349 | inactive |
| TMED6 | 3 | 0.874 | 9.12 | inactive |
| ANO10 | 1 | 0.559 | 6.9 | inactive |
| ANO10 | 2 | -0.149 | 1.92 | inactive |
| ANO10 | 3 | -0.284 | 0.966 | inactive |
| IGBP1 | 1 | 0.689 | 7.82 | inactive |
| IGBP1 | 2 | 0.531 | 6.7 | inactive |
| IGBP1 | 3 | -0.879 | -3.22 | inactive |
| CAPZBP1 | 1 | -0.572 | -1.06 | inactive |
| CAPZBP1 | 2 | 0.552 | 6.85 | inactive |
| CAPZBP1 | 3 | -1.21 | -5.57 | inactive |
| RAD51B | 1 | -0.104 | 2.23 | inactive |
| RAD51B | 2 | -0.668 | -1.73 | inactive |
| RAD51B | 3 | 2.73 | 22.2 | inactive |
| CYB5R3 | 1 | 2.61 | 21.3 | inactive |
| CYB5R3 | 2 | 1.97 | 16.8 | inactive |
| CYB5R3 | 3 | 1.17 | 11.2 | inactive |

Targets above whose gene name begins with C or c:
| Target gene | reagent no. | G2 robust z-score | G2 cells, % of GMNN control | call |
| --- | --- | --- | --- | --- |
| COL11A2 | 1 | -0.838 | -2.93 | inactive |
| COL11A2 | 2 | 4.22 | 32.7 | inactive |
| COL11A2 | 3 | 0.378 | 5.63 | inactive |
| CAPZBP1 | 1 | -0.572 | -1.06 | inactive |
| CAPZBP1 | 2 | 0.552 | 6.85 | inactive |
| CAPZBP1 | 3 | -1.21 | -5.57 | inactive |
| CYB5R3 | 1 | 2.61 | 21.3 | inactive |
| CYB5R3 | 2 | 1.97 | 16.8 | inactive |
| CYB5R3 | 3 | 1.17 | 11.2 | inactive |

Further entries follow.
| Target gene | reagent no. | G2 robust z-score | G2 cells, % of GMNN control | call |
| --- | --- | --- | --- | --- |
| LCAT | 1 | -0.203 | 1.54 | inactive |
| LCAT | 2 | 0.428 | 5.98 | inactive |
| LCAT | 3 | -0.92 | -3.5 | inactive |
| TNFRSF13B | 1 | -0.597 | -1.23 | inactive |
| TNFRSF13B | 2 | -0.0264 | 2.78 | inactive |
| TNFRSF13B | 3 | -1.44 | -7.19 | inactive |
| CSTF3-DT | 1 | 4.43 | 34.1 | inactive |
| CSTF3-DT | 2 | 1.51 | 13.6 | inactive |
| CSTF3-DT | 3 | -1.12 | -4.94 | inactive |
| PALM2AKAP2 | 1 | -0.88 | -3.22 | inactive |
| PALM2AKAP2 | 2 | 0.056 | 3.36 | inactive |
| PALM2AKAP2 | 3 | 0.305 | 5.12 | inactive |
| PALM2AKAP2 | 4 | -0.41 | 0.0816 | inactive |
| PALM2AKAP2 | 5 | 0.741 | 8.18 | inactive |
| PALM2AKAP2 | 6 | 0.602 | 7.2 | inactive |
| FEM1A | 1 | -0.0718 | 2.46 | inactive |
| FEM1A | 2 | 0.898 | 9.29 | inactive |
| FEM1A | 3 | -0.87 | -3.16 | inactive |
| DDX49 | 1 | 1.47 | 13.3 | inactive |
| DDX49 | 2 | 1.22 | 11.6 | inactive |
| DDX49 | 3 | -0.316 | 0.745 | inactive |
| WDR20 | 1 | 0.45 | 6.13 | inactive |
| WDR20 | 2 | 1.15 | 11.1 | inactive |
| WDR20 | 3 | -0.715 | -2.06 | inactive |
| PNPT1 | 1 | -0.345 | 0.542 | inactive |
| PNPT1 | 2 | 0.191 | 4.31 | inactive |
| PNPT1 | 3 | 4.53 | 34.8 | inactive |
| EXOC6 | 1 | 1.99 | 16.9 | inactive |
| EXOC6 | 2 | -0.377 | 0.314 | inactive |
| EXOC6 | 3 | 0.306 | 5.12 | inactive |
| POFUT2 | 1 | -0.549 | -0.898 | inactive |
| POFUT2 | 2 | 4.78 | 36.6 | inactive |
| POFUT2 | 3 | -0.477 | -0.391 | inactive |
